Where two headings read alike, the source gives them in different places. These are yes or no findings as the source states them, for the method shown. Binding seen in cells or lysates may run through a third protein. These calls come from enrichment with a bait or labelling near it, and not all partners need be listed. For part of these data: No binding means not detected with the bait. Each block holds one molecule with its values, some of them ahead of it.
Tests used:
Assay in all cases: affinity purification with mass spectrometry
DnaB (E. coli) [1] = target: DnaB (E. coli) (UniProt P0ACB0)
HolD (E. coli) [2] = target: HolD (E. coli) (UniProt P28632)
SeqA (E. coli) [3] = target: T1, SeqA (E. coli) (UniProt P0AFY8)
T1 sequence: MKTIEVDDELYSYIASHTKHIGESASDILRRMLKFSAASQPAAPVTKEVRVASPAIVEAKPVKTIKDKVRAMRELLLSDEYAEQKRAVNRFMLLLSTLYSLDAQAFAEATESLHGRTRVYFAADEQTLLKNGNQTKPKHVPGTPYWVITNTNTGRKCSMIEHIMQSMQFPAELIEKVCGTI

By UniProt entry, the sequences of proteins in these tests, tags left out.
UniProt P0ACB0: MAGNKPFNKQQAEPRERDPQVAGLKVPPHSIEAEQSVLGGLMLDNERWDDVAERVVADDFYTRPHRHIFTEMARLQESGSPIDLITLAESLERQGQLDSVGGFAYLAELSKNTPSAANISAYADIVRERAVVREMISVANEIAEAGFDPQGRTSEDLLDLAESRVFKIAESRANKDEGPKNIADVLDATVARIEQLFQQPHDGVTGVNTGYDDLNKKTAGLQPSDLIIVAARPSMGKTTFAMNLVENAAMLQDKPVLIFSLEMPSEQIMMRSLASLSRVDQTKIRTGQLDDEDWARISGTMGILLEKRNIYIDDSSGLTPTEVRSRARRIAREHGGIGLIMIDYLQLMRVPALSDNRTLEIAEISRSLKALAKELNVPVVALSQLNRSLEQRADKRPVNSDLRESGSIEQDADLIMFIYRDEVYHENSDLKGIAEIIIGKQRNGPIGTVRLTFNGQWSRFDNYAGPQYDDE
UniProt P28632: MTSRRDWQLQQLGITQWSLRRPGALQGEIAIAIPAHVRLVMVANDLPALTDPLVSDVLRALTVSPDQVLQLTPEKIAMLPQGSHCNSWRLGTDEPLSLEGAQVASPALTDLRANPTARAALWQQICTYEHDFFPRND
UniProt P0ABS5: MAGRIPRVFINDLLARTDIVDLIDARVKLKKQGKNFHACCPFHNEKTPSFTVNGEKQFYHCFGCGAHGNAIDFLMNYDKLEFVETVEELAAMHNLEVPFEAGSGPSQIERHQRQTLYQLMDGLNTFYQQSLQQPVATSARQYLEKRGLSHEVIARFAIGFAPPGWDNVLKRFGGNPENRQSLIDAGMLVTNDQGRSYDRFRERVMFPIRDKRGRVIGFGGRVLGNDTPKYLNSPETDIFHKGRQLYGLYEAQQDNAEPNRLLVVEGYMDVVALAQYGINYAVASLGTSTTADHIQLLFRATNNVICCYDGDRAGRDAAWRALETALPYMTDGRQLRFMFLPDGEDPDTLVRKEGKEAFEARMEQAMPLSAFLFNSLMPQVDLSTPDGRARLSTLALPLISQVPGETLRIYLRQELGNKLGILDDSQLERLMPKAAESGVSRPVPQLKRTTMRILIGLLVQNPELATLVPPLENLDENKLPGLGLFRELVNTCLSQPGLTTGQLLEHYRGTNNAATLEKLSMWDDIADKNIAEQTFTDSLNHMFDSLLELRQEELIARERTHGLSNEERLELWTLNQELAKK
UniProt P21513: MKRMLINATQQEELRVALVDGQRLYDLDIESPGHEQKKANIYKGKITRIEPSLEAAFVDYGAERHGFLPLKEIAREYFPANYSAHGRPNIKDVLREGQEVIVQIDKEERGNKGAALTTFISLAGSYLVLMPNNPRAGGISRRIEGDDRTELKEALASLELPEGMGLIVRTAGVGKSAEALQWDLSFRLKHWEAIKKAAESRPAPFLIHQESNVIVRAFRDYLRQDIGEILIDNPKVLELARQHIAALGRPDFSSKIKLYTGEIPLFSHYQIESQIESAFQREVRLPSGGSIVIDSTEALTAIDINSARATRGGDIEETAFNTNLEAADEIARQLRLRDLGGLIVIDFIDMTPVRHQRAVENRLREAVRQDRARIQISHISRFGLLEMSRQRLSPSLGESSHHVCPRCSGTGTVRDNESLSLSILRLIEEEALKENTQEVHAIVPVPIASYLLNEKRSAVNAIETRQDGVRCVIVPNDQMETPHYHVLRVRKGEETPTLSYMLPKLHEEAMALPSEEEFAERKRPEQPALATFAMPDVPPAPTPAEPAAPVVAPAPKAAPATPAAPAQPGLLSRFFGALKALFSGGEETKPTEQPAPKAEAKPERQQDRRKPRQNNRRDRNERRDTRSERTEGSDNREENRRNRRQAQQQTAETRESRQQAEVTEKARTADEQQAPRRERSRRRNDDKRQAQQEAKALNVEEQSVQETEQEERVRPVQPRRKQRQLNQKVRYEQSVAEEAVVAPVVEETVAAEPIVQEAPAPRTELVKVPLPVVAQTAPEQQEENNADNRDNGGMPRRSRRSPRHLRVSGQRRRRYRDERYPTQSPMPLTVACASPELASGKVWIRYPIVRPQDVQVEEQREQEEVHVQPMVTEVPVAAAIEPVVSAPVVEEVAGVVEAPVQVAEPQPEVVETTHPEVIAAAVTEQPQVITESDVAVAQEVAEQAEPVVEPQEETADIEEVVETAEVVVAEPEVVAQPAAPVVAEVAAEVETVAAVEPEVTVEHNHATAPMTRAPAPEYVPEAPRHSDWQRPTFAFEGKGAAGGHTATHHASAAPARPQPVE
UniProt P0AB89: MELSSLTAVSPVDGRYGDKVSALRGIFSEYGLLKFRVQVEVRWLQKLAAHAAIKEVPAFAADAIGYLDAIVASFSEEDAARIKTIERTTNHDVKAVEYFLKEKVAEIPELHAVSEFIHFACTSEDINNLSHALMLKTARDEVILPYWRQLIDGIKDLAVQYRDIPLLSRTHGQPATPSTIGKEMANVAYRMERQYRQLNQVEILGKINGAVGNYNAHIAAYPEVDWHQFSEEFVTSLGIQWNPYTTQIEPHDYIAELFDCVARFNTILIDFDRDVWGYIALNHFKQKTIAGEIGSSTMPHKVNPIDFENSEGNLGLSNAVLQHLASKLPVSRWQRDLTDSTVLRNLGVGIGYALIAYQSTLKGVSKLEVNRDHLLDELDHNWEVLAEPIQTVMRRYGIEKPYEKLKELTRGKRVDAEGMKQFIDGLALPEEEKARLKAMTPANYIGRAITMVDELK
UniProt P09980: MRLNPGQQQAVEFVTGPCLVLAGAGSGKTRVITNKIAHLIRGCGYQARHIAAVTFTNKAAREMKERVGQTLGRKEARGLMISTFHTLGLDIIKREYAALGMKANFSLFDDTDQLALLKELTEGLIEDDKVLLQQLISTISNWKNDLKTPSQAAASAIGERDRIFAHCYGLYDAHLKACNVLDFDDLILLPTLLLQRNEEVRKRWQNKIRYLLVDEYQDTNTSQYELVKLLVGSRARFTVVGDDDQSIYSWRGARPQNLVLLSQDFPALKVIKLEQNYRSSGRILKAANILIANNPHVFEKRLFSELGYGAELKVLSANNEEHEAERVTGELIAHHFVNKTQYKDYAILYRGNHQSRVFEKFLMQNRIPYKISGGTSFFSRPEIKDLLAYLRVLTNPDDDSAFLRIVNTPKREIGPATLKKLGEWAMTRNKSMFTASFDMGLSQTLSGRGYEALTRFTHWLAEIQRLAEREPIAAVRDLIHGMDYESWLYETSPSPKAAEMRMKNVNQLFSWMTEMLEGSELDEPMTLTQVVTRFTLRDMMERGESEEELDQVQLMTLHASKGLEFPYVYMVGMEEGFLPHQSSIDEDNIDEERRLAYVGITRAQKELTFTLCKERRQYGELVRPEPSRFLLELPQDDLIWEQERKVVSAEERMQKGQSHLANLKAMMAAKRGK
UniProt P56258: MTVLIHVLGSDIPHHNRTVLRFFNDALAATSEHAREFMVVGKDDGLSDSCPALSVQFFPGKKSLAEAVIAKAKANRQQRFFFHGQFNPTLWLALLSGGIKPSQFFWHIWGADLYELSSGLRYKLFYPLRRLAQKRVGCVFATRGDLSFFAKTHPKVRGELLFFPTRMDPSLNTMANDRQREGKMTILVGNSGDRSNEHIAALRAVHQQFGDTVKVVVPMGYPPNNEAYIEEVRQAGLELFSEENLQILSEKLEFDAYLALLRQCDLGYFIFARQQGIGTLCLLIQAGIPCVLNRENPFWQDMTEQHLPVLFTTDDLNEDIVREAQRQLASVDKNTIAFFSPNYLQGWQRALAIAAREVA

DnaG (E. coli) = DnaG (E. coli) (UniProt P0ABS5)
SeqA (E. coli) [4] = target: T1, SeqA (E. coli); remark: listed apart in the source
DnaA (E. coli) = target: T2, DnaA (E. coli) (UniProt P03004)
T2 sequence: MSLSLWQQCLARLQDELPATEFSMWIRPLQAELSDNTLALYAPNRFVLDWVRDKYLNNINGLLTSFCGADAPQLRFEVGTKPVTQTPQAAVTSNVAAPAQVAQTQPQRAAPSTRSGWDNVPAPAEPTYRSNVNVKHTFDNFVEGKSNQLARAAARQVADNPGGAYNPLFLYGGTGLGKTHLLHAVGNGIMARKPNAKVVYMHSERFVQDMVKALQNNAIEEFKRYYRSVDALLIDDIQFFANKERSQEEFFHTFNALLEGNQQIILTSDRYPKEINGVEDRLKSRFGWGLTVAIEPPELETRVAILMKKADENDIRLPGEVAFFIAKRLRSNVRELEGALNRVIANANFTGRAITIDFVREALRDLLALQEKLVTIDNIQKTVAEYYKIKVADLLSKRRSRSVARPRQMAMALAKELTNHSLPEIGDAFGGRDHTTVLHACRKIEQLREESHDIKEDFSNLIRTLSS

HolD (E. coli) [5] = target: HolD (E. coli) (UniProt P28632); remark: listed apart in the source
DnaB (E. coli) [6] = target: DnaB (E. coli) (UniProt P0ACB0); remark: listed apart in the source
[7] = target: T3, NrdB, a ribonuclotide reductase (RNR) subunit (E. coli) (UniProt P69924)
T3 sequence: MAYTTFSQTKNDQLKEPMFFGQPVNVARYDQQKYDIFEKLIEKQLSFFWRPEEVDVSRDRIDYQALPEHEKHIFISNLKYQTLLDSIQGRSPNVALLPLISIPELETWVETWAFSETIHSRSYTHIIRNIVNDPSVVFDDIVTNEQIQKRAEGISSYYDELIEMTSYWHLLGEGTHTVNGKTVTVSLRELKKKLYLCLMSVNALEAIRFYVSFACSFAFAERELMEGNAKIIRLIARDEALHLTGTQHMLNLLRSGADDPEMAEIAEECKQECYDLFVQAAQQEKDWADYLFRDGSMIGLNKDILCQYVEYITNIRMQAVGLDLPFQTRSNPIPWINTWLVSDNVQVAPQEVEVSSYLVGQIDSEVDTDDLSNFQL

Molecule: RNase E (Rne) (from UniProt P21513 1-1061) (enzyme)
binding (DnaB (E. coli) [1]): binds

Molecule: DnaB (from UniProt P0ACB0 1-471)
binding (SeqA (E. coli) [3]): no binding

Molecule: PurB (from UniProt P0AB89 1-456) (enzyme)
binding (HolD (E. coli) [2]): binds

Molecule: DnaG (from UniProt P0ABS5 1-581)
binding (SeqA (E. coli) [3]): binds

B1: SeqA (protein, UniProt P0AFY8 1-181)
chain: MKTIEVDDELYSYIASHTKHIGESASDILRRMLKFSAASQPAAPVTKEVRVASPAIVEAKPVKTIKDKVRAMRELLLSDEYAEQKRAVNRFMLLLSTLYSLDAQAFAEATESLHGRTRVYFAADEQTLLKNGNQTKPKHVPGTPYWVITNTNTGRKCSMIEHIMQSMQFPAELIEKVCGTI
binding (DnaG (E. coli)): binds

B5: PfkB (enzyme, UniProt P06999 1-309)
chain: MVRIYTLTLAPSLDSATITPQIYPEGKLRCTAPVFEPGGGGINVARAIAHLGGSATAIFPAGGATGEHLVSLLADENVPVATVEAKDWTRQNLHVHVEASGEQYRFVMPGAALNEDEFRQLEEQVLEIESGAILVISGSLPPGVKLEKLTQLISAAQKQGIRCIVDSSGEALSAALAIGNIELVKPNQKELSALVNRELTQPDDVRKAAQEIVNSGKAKRVVVSLGPQGALGVDSENCIQVVPPPVKSQSTVGAGDSMVGAMTLKLAENASLEEMVRFGVAAGSAATLNQGTRLCSHDDTQKIYAYLSR
binding (DnaA (E. coli)): binds

Second part, the molecule after the results:

binding (DnaB (E. coli) [1]): binds
Molecule: Rep (from UniProt P09980 1-673)

binding (HolD (E. coli) [2]): binds
Molecule: WecF (from UniProt P56258 1-359) (enzyme)

binding (DnaG (E. coli)): binds | binding (SeqA (E. coli) [4]): binds
B2: SrmB (enzyme, UniProt P21507 1-444)
chain: MTVTTFSELELDESLLEALQDKGFTRPTAIQAAAIPPALDGRDVLGSAPTGTGKTAAYLLPALQHLLDFPRKKSGPPRILILTPTRELAMQVSDHARELAKHTHLDIATITGGVAYMNHAEVFSENQDIVVATTGRLLQYIKEENFDCRAVETLILDEADRMLDMGFAQDIEHIAGETRWRKQTLLFSATLEGDAIQDFAERLLEDPVEVSANPSTRERKKIHQWYYRADDLEHKTALLVHLLKQPEATRSIVFVRKRERVHELANWLREAGINNCYLEGEMVQGKRNEAIKRLTEGRVNVLVATDVAARGIDIPDVSHVFNFDMPRSGDTYLHRIGRTARAGRKGTAISLVEAHDHLLLGKVGRYIEEPIKARVIDELRPKTRAPSEKQTGKPSKKVLAKRAEKKKAKEKEKPRVKKRHRDTKNIGKRRKPSGTGVPPQTTEE

binding (DnaA (E. coli)): binds
B3: MrcB (enzyme, UniProt P02919 1-844)
chain: MAGNDREPIGRKGKPTRPVKQKVSRRRYEDDDDYDDYDDYEDEEPMPRKGKGKGKGRKPRGKRGWLWLLLKLAIVFAVLIAIYGVYLDQKIRSRIDGKVWQLPAAVYGRMVNLEPDMTISKNEMVKLLEATQYRQVSKMTRPGEFTVQANSIEMIRRPFDFPDSKEGQVRARLTFDGDHLATIVNMENNRQFGFFRLDPRLITMISSPNGEQRLFVPRSGFPDLLVDTLLATEDRHFYEHDGISLYSIGRAVLANLTAGRTVQGASTLTQQLVKNLFLSSERSYWRKANEAYMALIMDARYSKDRILELYMNEVYLGQSGDNEIRGFPLASLYYFGRPVEELSLDQQALLVGMVKGASIYNPWRNPKLALERRNLVLRLLQQQQIIDQELYDMLSARPLGVQPRGGVISPQPAFMQLVRQELQAKLGDKVKDLSGVKIFTTFDSVAQDAAEKAAVEGIPALKKQRKLSDLETAIVVVDRFSGEVRAMVGGSEPQFAGYNRAMQARRSIGSLAKPATYLTALSQPKIYRLNTWIADAPIALRQPNGQVWSPQNDDRRYSESGRVMLVDALTRSMNVPTVNLGMALGLPAVTETWIKLGVPKDQLHPVPAMLLGALNLTPIEVAQAFQTIASGGNRAPLSALRSVIAEDGKVLYQSFPQAERAVPAQAAYLTLWTMQQVVQRGTGRQLGAKYPNLHLAGKTGTTNNNVDTWFAGIDGSTVTITWVGRDNNQPTKLYGASGAMSIYQRYLANQTPTPLNLVPPEDIADMGVDYDGNFVCSGGMRILPVWTSDPQSLCQQSEMQQQPSGNPFDQSSQPQQQPQQQPAQQEQKDSDGVAGWIKDMFGSN

binding (HolD (E. coli) [5]): binds | binding (DnaB (E. coli) [6]): binds | binding [7]: binds | binding (SeqA (E. coli) [4]): binds
B4: RfaF (enzyme, UniProt P37692 1-348)
chain: MKILVIGPSWVGDMMMSQSLYRTLQARYPQAIIDVMAPAWCRPLLSRMPEVNEAIPMPLGHGALEIGERRKLGHSLREKRYDRAYVLPNSFKSALVPFFAGIPHRTGWRGEMRYGLLNDVRVLDKEAWPLMVERYIALAYDKGIMRTAQDLPQPLLWPQLQVSEGEKSYTCNQFSLSSERPMIGFCPGAEFGPAKRWPHYHYAELAKQLIDEGYQVVLFGSAKDHEAGNEILAALNTEQQAWCRNLAGETQLDQAVILIAACKAIVTNDSGLMHVAAALNRPLVALYGPSSPDFTPPLSHKARVIRLITGYHKVRKGDAAEGYHQSLIDITPQRVLEELNALLLQEEA

— article doi:10.1101/2021.12.08.471875
